The results in this text go back to publication doi:10.1101/611582.

Protein sequences, listed by entry. Tags and fused reporters are not part of them. Residues count along the entry.
UniProt O22476, residues 24-1196: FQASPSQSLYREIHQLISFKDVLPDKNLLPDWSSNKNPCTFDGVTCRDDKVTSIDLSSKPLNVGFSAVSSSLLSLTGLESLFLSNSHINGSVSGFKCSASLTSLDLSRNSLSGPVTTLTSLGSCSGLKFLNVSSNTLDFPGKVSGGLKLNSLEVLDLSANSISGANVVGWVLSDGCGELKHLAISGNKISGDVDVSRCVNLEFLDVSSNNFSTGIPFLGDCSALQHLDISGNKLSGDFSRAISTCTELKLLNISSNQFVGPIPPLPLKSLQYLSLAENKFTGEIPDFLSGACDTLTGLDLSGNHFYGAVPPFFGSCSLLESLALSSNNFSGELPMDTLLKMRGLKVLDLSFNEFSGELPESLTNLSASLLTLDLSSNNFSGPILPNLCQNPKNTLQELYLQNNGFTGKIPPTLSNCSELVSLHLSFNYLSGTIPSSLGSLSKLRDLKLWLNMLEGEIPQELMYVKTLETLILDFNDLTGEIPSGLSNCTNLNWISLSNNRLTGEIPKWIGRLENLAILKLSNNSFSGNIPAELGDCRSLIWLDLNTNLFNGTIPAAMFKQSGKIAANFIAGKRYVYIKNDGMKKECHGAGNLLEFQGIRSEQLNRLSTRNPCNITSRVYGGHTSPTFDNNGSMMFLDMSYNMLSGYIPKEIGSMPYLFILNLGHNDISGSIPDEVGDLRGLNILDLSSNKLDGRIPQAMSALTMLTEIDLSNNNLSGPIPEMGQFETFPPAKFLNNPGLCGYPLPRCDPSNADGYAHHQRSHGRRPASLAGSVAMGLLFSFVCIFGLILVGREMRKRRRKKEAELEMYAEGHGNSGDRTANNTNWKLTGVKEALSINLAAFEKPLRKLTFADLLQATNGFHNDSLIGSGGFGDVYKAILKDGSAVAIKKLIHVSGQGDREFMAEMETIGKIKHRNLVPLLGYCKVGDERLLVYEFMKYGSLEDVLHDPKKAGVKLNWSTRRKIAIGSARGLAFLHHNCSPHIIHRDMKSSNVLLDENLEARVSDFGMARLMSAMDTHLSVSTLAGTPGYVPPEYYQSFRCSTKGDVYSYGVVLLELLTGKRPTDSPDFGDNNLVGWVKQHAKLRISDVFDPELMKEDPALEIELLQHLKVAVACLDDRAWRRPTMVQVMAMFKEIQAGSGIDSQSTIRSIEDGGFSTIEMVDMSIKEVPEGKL

Assay [1] deals with T1, Citrine-LYM2 (LysM-CONTAINING GPI-ANCHORED PROTEIN 2) (Arabidopsis) (UniProt O23006).
T1 sequence: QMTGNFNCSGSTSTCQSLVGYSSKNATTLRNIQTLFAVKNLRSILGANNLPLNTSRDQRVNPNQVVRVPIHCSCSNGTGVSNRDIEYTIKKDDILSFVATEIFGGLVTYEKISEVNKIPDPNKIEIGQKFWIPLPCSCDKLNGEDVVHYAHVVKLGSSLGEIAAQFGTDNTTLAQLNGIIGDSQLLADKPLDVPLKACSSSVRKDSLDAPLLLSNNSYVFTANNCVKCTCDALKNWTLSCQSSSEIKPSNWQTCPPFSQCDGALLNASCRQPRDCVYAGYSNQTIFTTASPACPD
As to the kind of experiment: co-IP.

Assay [2] has as its target T2, LYK4-GFP (Arabidopsis (Col-0 cDNA)) (UniProt O64825).
T2 sequence: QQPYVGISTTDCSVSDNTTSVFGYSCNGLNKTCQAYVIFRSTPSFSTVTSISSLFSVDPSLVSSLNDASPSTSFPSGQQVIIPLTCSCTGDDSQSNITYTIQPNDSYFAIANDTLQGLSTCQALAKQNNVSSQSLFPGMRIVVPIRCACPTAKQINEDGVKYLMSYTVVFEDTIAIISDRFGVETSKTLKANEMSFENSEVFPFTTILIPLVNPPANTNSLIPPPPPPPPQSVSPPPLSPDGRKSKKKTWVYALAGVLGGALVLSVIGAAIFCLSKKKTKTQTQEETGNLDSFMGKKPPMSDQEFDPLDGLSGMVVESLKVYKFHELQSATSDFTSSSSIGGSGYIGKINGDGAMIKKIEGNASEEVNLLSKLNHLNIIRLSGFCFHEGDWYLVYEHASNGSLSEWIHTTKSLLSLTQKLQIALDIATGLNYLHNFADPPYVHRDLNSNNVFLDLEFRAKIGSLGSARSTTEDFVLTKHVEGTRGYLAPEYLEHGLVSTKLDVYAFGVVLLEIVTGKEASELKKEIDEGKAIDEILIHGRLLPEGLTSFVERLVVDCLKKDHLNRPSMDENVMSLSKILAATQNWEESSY
As to the kind of experiment: co-IP.

In assay [3] the target is T1, Citrine-LYM2 (LysM-CONTAINING GPI-ANCHORED PROTEIN 2) (Arabidopsis). As to the kind of experiment: FRET or BRET. (In general: BRET reads energy transfer from a luciferase to a nearby fluorophore.)
The target of assay [4] is T3, CPK6-GFP (Arabidopsis (Col-0 cDNA)) (UniProt Q38872).
T3 sequence: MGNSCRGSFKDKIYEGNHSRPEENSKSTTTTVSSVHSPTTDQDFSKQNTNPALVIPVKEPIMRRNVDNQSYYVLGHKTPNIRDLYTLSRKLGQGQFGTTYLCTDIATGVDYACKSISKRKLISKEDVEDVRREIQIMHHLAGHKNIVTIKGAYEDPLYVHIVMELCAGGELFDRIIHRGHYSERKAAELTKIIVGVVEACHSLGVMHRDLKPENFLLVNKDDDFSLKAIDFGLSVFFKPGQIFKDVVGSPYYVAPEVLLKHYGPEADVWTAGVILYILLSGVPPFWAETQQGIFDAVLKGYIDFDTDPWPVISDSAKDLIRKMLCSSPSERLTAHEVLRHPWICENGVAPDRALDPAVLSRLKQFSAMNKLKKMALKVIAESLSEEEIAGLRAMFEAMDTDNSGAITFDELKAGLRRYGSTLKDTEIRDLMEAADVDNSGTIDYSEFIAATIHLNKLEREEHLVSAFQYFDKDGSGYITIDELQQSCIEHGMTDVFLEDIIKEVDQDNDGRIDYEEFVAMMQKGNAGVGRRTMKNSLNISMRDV
As to the kind of experiment: co-IP.

The target of assay [5] is T4, Citrine-LYM2 expressed in Arabidopsis protoplasts (Arabidopsis) (UniProt O23006).
T4 sequence: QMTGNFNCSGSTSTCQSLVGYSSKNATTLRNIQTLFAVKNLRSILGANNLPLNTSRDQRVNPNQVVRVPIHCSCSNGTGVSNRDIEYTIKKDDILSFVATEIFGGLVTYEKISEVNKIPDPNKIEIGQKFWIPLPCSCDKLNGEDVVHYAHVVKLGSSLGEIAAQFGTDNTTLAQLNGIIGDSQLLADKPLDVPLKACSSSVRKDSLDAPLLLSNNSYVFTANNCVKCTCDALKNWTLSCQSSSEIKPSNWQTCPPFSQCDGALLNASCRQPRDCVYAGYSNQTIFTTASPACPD
As to the kind of experiment: co-IP.

The target of assay [6] is T2, LYK4-GFP (Arabidopsis (Col-0 cDNA)). As to the kind of experiment: FRET or BRET.

No constants are given. Whether binding was seen depends on the method and setting. Binding seen in cells or lysates may run through a third protein. Some binding calls cover weakened binding; strength is not graded here. For some assays here: Tags and fused reporters may be left off the sequences shown.

Consider “BRI1-RFP (from UniProt O22476 24-1196) (receptor)”, for which the binding result in assay [1] and in assay [2] was “no binding” throughout.

B1: Citrine-LYM2 (LysM-CONTAINING GPI-ANCHORED PROTEIN 2) (receptor, UniProt O23006 24-318)
chain: QMTGNFNCSGSTSTCQSLVGYSSKNATTLRNIQTLFAVKNLRSILGANNLPLNTSRDQRVNPNQVVRVPIHCSCSNGTGVSNRDIEYTIKKDDILSFVATEIFGGLVTYEKISEVNKIPDPNKIEIGQKFWIPLPCSCDKLNGEDVVHYAHVVKLGSSLGEIAAQFGTDNTTLAQLNGIIGDSQLLADKPLDVPLKACSSSVRKDSLDAPLLLSNNSYVFTANNCVKCTCDALKNWTLSCQSSSEIKPSNWQTCPPFSQCDGALLNASCRQPRDCVYAGYSNQTIFTTASPACPD
Take B1: the binding entry in assay [3] is on record as “binds”.

B2: LYK4-HA (receptor, UniProt O64825 23-612)
chain: QQPYVGISTTDCSVSDNTTSVFGYSCNGLNKTCQAYVIFRSTPSFSTVTSISSLFSVDPSLVSSLNDASPSTSFPSGQQVIIPLTCSCTGDDSQSNITYTIQPNDSYFAIANDTLQGLSTCQALAKQNNVSSQSLFPGMRIVVPIRCACPTAKQINEDGVKYLMSYTVVFEDTIAIISDRFGVETSKTLKANEMSFENSEVFPFTTILIPLVNPPANTNSLIPPPPPPPPQSVSPPPLSPDGRKSKKKTWVYALAGVLGGALVLSVIGAAIFCLSKKKTKTQTQEETGNLDSFMGKKPPMSDQEFDPLDGLSGMVVESLKVYKFHELQSATSDFTSSSSIGGSGYIGKINGDGAMIKKIEGNASEEVNLLSKLNHLNIIRLSGFCFHEGDWYLVYEHASNGSLSEWIHTTKSLLSLTQKLQIALDIATGLNYLHNFADPPYVHRDLNSNNVFLDLEFRAKIGSLGSARSTTEDFVLTKHVEGTRGYLAPEYLEHGLVSTKLDVYAFGVVLLEIVTGKEASELKKEIDEGKAIDEILIHGRLLPEGLTSFVERLVVDCLKKDHLNRPSMDENVMSLSKILAATQNWEESSY
Take B2: the binding result in assay [1] and in assay [4] was “binds” throughout.

B3: LYK4-RFP expressed in Arabidopsis protoplasts (receptor, UniProt O64825 23-612)
chain: QQPYVGISTTDCSVSDNTTSVFGYSCNGLNKTCQAYVIFRSTPSFSTVTSISSLFSVDPSLVSSLNDASPSTSFPSGQQVIIPLTCSCTGDDSQSNITYTIQPNDSYFAIANDTLQGLSTCQALAKQNNVSSQSLFPGMRIVVPIRCACPTAKQINEDGVKYLMSYTVVFEDTIAIISDRFGVETSKTLKANEMSFENSEVFPFTTILIPLVNPPANTNSLIPPPPPPPPQSVSPPPLSPDGRKSKKKTWVYALAGVLGGALVLSVIGAAIFCLSKKKTKTQTQEETGNLDSFMGKKPPMSDQEFDPLDGLSGMVVESLKVYKFHELQSATSDFTSSSSIGGSGYIGKINGDGAMIKKIEGNASEEVNLLSKLNHLNIIRLSGFCFHEGDWYLVYEHASNGSLSEWIHTTKSLLSLTQKLQIALDIATGLNYLHNFADPPYVHRDLNSNNVFLDLEFRAKIGSLGSARSTTEDFVLTKHVEGTRGYLAPEYLEHGLVSTKLDVYAFGVVLLEIVTGKEASELKKEIDEGKAIDEILIHGRLLPEGLTSFVERLVVDCLKKDHLNRPSMDENVMSLSKILAATQNWEESSY
Regarding B3, the binding entry in assay [5] is “binds”.

B4: LYK5-RFP (receptor, UniProt O22808 27-664)
chain: QQPYVNNHQLACEVRVYDNITNGFTCNGPPSCRSYLTFWSQPPYNTADSIAKLLNVSAAEIQSINNLPTATTRIPTRELVVIPANCSCSSSSGGFYQHNATYNLSGNRGDETYFSVANDTYQALSTCQAMMSQNRYGERQLTPGLNLLVPLRCACPTAKQTTAGFKYLLTYLVAMGDSISGIAEMFNSTSAAITEGNELTSDNIFFFTPVLVPLTTEPTKIVISPSPPPPPVVATPPQTPVDPPGSSSSHKWIYIGIGIGAGLLLLLSILALCFYKRRSKKKSLPSSLPEENKLFDSSTKQSIPTTTTTQWSIDLSNSSEAFGLKSAIESLTLYRFNDLQSATSNFSDENRIKGSVYRATINGDDAAVKVIKGDVSSSEINLLKKLNHSNIIRLSGFCIREGTSYLVFEYSENGSISDWLHSSGKKSLTWKQRVEIARDVAEALDYLHNYITPPHIHKNLESTNILLDSNFRAKIANFGVARILDEGDLDLQLTRHVEGTQGYLAPEYVENGVITSKLDVFAFGVAVLELLSGREAVTIHKKKEGEEEVEMLCKVINSVLGGENVREKLKEFMDPSLGNEYPLELAYTMAQLAKSCVATDLNSRPSVTQVLTTLSMIVSSSIDWEPSDDLLRSGSLGN
On to B4, for which the binding result in assay [6] and in assay [2] was “binds” in each case.
